Plain letter strings leave the end groups untold.
Experiment: peptide synthesis
Conditions: whole synthesis

In the case of DIFKLVIDHISMKARKK (SilCR peptide), the “final purity (method not given)” value (run 1) is reported as 70% and the “final purity (method not given)” value (run 2) is reported as 90%.

From US20070071773A1 (priority 2002, published 2007)
